Experimental data reported in paper PMC6881253, “The PCNA interaction motifs revisited: thinking outside the PIP-box” (Cellular and Molecular Life Sciences: CMLS, 2019).
Ends that are not written are not given here.

Assay: NMR secondary Cα chemical shifts / helicity of unbound peptides
Type: physicochemical
Conditions: unbound peptide, pH 6.3, 25 °C; for %helicity, NMR: using 100% helicity as < Δδ > C^α of 3.2 ppm; for < Δδ > C^α, NMR: average secondary Cα chemical shift over the motif

Substance	%helicity, NMR [%]	< Δδ > C^α, NMR [ppm]
Ac-RQSTLYSFFPKSPAL-NH2 [MSH6]	0	
Ac-TQGRLDDFFKVTGSL-NH2 [FEN1]	3.8	0.12
MIGQKTLYSFFTPSP [UNG2]	1	0.03
Ac-MDRWLVKW-NH2 [APIM]	6.3	0.20
